The other results are listed elsewhere or left out. The data scatter; read single values as rough.
Assays:
[1] = compound: ClCC(=O)N[C@@H]1CCCc2ccccc12; assay: log2 mean competition ratio of IA-DTB cysteine labelling (DMSO/compound) (log2 ratio); higher = stronger cysteine engagement by compound; details: treatment time: 4 h, cell line lysate: HEK293T
Procedure: (§1)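 IA-DTB competitive cysteine chemoproteomics in HEK293T RIPA lysate. Lysates were treated with compound 29 or 30 at 50 or 200 µM for 4 h, then IA-DTB (500 µM, 1 h), trypsin-digested, NeutrAvidin-enriched and analysed by diaPASEF. Competition ratio = intensity DMSO / intensity compound (n=4 treated, n=64 DMSO); binding: mean log2 CR ≥ 1 and p ≤ 0.05 plus QC filters. Target is the cysteine site.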

Chains of the proteins cited; added tags and fusions are not shown. Lines headed by an entry give the natural chain unless they say otherwise; changes in a name come on top. Residues count along the entry.
UniProt Q2TAZ0, 1260-1281: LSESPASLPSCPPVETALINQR
UniProt O14867: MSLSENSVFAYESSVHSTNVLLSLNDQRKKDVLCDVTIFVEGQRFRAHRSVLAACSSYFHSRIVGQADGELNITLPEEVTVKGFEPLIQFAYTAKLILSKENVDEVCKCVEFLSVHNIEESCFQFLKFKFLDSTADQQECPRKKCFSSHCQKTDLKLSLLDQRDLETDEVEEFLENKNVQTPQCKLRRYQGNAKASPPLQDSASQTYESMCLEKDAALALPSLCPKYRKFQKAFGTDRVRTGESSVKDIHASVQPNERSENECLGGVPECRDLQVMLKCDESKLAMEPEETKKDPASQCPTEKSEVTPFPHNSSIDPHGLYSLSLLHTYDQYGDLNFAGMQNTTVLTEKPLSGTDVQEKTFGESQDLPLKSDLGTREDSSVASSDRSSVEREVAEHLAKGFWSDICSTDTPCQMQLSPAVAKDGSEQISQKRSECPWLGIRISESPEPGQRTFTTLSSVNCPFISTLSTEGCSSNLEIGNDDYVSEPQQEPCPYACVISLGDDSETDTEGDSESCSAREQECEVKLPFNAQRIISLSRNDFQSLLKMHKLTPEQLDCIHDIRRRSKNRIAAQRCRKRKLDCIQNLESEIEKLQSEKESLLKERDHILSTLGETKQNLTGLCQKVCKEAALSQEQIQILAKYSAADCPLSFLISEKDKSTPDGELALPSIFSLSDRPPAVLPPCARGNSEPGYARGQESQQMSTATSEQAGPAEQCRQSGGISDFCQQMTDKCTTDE
UniProt P31939, 142-164: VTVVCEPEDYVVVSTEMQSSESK
UniProt Q96BY7: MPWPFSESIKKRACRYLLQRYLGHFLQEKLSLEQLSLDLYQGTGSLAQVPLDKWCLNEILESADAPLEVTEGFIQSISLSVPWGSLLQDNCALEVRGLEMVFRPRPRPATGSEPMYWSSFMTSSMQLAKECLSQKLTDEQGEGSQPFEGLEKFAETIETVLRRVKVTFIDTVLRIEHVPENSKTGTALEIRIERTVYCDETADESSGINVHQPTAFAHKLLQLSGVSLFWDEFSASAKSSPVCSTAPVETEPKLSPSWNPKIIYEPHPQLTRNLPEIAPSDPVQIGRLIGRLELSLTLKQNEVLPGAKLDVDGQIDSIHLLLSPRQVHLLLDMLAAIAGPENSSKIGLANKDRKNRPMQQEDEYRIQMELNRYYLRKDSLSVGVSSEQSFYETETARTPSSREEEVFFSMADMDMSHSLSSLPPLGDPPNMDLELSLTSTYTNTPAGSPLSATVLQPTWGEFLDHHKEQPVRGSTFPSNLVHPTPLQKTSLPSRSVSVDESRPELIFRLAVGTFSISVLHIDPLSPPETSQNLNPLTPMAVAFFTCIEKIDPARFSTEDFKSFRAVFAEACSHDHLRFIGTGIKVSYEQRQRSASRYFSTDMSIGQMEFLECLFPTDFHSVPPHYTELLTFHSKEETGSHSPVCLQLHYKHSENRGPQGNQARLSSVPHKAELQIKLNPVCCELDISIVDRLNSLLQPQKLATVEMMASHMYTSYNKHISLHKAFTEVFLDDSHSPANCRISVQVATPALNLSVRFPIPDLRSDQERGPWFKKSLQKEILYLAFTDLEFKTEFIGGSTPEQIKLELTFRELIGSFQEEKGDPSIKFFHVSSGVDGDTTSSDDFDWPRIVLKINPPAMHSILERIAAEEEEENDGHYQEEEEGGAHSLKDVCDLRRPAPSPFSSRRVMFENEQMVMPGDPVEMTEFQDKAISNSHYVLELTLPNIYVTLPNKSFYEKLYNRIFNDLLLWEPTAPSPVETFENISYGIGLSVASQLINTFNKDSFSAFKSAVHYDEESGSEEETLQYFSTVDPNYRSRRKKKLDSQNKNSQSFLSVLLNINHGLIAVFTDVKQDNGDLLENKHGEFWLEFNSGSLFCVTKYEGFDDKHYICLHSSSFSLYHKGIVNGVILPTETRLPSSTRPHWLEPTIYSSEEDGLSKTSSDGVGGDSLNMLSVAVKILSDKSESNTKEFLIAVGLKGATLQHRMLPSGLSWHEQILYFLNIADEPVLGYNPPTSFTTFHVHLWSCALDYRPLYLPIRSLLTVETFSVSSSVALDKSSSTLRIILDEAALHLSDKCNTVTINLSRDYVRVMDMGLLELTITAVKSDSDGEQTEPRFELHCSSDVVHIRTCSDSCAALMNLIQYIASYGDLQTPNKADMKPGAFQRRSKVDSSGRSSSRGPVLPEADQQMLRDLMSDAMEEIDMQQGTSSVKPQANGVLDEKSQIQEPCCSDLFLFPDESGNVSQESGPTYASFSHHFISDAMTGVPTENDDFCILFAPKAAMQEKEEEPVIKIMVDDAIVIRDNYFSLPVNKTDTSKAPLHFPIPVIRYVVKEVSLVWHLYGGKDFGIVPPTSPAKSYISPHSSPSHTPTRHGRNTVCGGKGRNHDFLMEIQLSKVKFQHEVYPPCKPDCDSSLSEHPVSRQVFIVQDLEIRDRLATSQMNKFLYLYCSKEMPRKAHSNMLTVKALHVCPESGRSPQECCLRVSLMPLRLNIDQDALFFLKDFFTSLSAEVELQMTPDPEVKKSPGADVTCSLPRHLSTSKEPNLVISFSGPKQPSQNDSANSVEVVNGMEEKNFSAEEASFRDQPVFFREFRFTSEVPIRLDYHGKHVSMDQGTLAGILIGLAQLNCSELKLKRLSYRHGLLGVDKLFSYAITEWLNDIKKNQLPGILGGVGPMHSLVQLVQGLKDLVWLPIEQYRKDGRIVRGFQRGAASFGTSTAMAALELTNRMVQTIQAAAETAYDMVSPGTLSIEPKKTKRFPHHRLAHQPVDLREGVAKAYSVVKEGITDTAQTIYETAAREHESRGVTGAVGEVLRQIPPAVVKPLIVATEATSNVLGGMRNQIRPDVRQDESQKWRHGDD
UniProt Q6PL18: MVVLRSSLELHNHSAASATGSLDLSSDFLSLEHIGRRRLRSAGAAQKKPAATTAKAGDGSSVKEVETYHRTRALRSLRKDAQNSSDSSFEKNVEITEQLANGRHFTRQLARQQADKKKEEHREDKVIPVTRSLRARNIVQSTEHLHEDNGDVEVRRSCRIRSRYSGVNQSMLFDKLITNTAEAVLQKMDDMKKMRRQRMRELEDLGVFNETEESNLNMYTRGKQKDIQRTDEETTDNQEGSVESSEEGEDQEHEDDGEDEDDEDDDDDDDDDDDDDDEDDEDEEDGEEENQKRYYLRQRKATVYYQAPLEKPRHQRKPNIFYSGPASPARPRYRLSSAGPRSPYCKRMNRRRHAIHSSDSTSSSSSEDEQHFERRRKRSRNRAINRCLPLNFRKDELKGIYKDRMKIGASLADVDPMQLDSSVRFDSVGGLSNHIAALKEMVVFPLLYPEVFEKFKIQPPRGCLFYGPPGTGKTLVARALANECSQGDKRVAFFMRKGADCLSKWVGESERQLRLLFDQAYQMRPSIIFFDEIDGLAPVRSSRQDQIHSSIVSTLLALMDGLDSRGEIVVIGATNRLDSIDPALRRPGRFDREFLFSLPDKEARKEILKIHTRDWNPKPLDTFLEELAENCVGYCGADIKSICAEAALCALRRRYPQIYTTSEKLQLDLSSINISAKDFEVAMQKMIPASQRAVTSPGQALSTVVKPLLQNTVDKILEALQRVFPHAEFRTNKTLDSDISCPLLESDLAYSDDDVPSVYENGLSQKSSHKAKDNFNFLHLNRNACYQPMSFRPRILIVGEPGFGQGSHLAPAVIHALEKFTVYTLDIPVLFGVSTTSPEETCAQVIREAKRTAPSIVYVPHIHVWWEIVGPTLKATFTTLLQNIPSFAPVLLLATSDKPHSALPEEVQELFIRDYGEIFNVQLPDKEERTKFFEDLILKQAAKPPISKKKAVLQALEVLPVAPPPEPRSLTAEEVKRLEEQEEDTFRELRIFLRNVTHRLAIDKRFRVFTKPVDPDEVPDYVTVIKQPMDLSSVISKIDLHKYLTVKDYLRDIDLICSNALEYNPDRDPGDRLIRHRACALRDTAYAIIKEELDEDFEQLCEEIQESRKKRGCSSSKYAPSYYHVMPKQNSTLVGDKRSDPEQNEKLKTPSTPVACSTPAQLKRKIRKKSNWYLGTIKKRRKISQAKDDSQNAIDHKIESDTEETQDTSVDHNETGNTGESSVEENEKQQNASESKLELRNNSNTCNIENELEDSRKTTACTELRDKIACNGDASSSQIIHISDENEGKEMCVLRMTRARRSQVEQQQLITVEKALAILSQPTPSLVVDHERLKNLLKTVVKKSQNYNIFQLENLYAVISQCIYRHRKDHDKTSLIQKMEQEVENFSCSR
UniProt Q9UHR4: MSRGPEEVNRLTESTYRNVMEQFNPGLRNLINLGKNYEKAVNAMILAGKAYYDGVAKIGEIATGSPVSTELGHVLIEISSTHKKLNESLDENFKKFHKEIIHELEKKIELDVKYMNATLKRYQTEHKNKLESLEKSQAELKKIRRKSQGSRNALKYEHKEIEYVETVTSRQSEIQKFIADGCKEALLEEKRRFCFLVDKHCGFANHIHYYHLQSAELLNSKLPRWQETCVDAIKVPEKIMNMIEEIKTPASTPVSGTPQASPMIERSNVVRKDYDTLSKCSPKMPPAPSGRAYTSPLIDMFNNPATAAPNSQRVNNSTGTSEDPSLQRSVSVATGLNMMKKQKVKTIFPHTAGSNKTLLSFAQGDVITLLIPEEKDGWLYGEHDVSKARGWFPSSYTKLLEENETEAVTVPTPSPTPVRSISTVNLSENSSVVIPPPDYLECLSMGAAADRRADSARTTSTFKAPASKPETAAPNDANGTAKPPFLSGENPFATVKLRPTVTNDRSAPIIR
UniProt Q76L83: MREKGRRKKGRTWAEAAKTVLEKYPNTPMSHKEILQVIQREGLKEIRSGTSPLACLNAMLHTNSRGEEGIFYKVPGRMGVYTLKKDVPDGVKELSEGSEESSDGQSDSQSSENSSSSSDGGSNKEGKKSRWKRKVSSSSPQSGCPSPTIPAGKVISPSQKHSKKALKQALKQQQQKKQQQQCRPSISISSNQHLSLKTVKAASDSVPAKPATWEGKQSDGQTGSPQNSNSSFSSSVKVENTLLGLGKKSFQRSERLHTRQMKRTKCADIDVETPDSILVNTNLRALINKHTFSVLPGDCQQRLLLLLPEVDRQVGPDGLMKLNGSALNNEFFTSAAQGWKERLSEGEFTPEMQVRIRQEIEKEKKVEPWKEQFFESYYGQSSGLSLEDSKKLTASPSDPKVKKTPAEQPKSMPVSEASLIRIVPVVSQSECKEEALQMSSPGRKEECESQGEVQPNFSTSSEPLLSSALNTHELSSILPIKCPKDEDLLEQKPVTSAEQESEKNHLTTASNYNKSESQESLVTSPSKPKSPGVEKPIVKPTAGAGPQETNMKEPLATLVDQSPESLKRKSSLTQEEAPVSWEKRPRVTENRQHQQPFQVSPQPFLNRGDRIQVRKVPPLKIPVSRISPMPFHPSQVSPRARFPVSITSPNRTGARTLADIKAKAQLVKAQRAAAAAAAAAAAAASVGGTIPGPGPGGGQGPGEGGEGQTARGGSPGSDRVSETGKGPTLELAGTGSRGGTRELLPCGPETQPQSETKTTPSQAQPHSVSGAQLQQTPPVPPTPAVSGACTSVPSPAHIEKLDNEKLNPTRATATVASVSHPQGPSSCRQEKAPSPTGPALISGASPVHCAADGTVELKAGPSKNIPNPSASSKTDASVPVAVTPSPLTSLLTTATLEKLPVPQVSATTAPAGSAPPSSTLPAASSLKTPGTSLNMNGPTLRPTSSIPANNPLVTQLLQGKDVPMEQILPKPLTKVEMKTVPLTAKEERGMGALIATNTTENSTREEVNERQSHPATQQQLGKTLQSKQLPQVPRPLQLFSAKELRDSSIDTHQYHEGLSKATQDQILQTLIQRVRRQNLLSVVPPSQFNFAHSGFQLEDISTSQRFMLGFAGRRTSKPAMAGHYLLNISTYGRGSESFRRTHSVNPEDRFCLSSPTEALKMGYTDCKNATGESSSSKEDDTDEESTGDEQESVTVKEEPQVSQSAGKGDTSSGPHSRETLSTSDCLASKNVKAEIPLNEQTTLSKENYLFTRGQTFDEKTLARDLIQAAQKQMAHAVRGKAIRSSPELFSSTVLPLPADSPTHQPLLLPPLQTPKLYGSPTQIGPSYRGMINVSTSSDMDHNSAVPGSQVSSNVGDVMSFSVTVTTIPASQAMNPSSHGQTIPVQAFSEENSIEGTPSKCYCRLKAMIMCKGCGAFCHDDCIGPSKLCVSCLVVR
UniProt Q8WY36, 574-601: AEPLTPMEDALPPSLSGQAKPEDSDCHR
UniProt Q9BYV9, 312-331: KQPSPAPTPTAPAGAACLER
UniProt Q6QNY1, 13-42: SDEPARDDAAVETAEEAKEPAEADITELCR
UniProt O95817, 366-388: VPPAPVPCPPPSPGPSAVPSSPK

[2] = compound: ClCC(=O)N[C@H]1CCCc2ccccc12; assay: as above; details: treatment time: 4 h, cell line lysate: HEK293T
Procedure: as §1

Row | Target | log2 mean competition ratio ([1]; 50 µM) | log2 mean competition ratio ([1]; 200 µM) | log2 mean competition ratio ([2]; 50 µM) | log2 mean competition ratio ([2]; 200 µM)
1 | ASNSD1 C378 | 0.22 | -0.000899 | 0.0482 | -0.0819
2 | BBS2 C662 | 0.274 | 0.0491 | 0.0466 | -0.066
3 | ATXN7L2 C585 (UniProt Q5T6C5) | 0.0747 | -0.158 | 0.000952 | 0.0472
4 | ATG2A C1270 (UniProt Q2TAZ0) | -0.175 | 0.194 | -0.372 | 0.2
5 | ATL2 C441 (UniProt Q8NHH9) | -0.241 | 0.178 | -0.225 | 0.243
6 | BACH1 C140 (UniProt O14867) | 0.0457 | 0.33 | -0.0445 | 0.281
7 | ATP6V0A1 C247 (UniProt Q93050) | 0.462 | -0.175 | 0.232 | -0.169
8 | BMPR2 C496 (UniProt Q13873) | -0.0759 | 0.278 | -0.372 | 0.189
9 | BAZ2A C726 (UniProt Q9UIF9) | -0.164 | 0.25 | -0.204 | -0.321
10 | ATIC C146 (UniProt P31939) | -0.447 | -0.176 | -0.00705 | 0.00442
11 | ATG2B C1688 (UniProt Q96BY7) | 0.0848 | -0.0226 | -0.242 | -0.294
12 | BAZ2A C1037 (UniProt Q9UIF9) | 0.185 | -0.162 | 0.188 | 0.015
13 | ATP6V0A2 C680 (UniProt Q9Y487) | 0.06 | 0.0632 | 0.0203 | 0.0499
14 | BCAM C522 | 0.00831 | 0.196 | 0.0544 | 0.207
15 | ATAD2 C1246 (UniProt Q6PL18) | -0.275 | 0.00722 | -0.72 | -0.0309
16 | BCOR C1080 (UniProt Q6W2J9) | -0.105 | -0.0696 | -0.0195 | 0.0805
17 | ATE1 C138 (UniProt O95260) | -0.177 | -0.365 | 0.948 | 0.0181
18 | AURKA C49 (UniProt O14965) | 0.378 | 0.272 | 0.296 | 0.234
19 | B3GALNT2 C198 (UniProt Q8NCR0) | -0.00213 | 0.211 | 0.0363 | 0.432
20 | AVEN C193 (UniProt Q9NQS1) | 0.538 | -0.00819 | 0.446 | 0.124
21 | ASPM C1088 (UniProt Q8IZT6) | -0.273 | 0.0652 | -0.411 | -0.0438

Row | Target | log2 mean competition ratio ([1]; 50 µM) | log2 mean competition ratio ([1]; 200 µM) | log2 mean competition ratio ([2]; 50 µM) | log2 mean competition ratio ([2]; 200 µM)
22 | B3GALT6 C32 (UniProt Q96L58) | -0.131 | -0.135 | -0.455 | 0.0525
23 | BAIAP2L1 C182 (UniProt Q9UHR4) | -0.231 | 0.035 | 0.108 | 0.0474
24 | BNIP2 C229 | 0.232 | 0.102 | 0.034 | 0.157
25 | BAZ1B C1045 (UniProt Q9UIG0) | 0.316 | -0.131 | 0.43 | 0.135
26 | ASXL2 C144 (UniProt Q76L83) | 0.475 | -0.337 | 0.546 | -0.471
27 | ATAD3A C563 (UniProt Q9NVI7) | 0.376 | 0.0205 | 0.169 | -0.0878
28 | BHLHE40 C219 (UniProt O14503) | 0.00191 | -0.13 | -0.00838 | -0.0502
29 | BBX C599 (UniProt Q8WY36) | 0.0492 | -0.202 | 0.252 | -0.0493
30 | ASXL3 C838 (UniProt Q9C0F0) | -0.264 | -0.0297 | -0.088 | 0.168
31 | BACH2 C328 (UniProt Q9BYV9) | -0.173 | 0.862 | -0.161 | 0.00296
32 | BLM C901 (UniProt P54132) | 0.407 | 0.0438 | 0.392 | 0.0909
33 | BLOC1S2 C41 (UniProt Q6QNY1) | -0.364 | 0.0392 | 0.294 | 0.0737
34 | ATF6B C340 (UniProt Q99941) | -0.00523 | 0.446 | -0.0392 | 0.371
35 | BAG3 C373 (UniProt O95817) | -0.315 | -0.247 | 0.241 | -0.126
36 | BDP1 C1299 (UniProt A6H8Y1) | -0.379 | -0.171 | -0.0698 | 0.0603
37 | ASXL2 C746 (UniProt Q76L83) | -0.0579 | -0.241 | 0.374 | -0.346
38 | BIRC6 C543 | -0.178 | -0.196 | -0.0572 | -0.278
39 | ASXL2 C827 (UniProt Q76L83) | 0.291 | 0.0324 | 0.655 | 0.285
40 | ATP7B C268 (UniProt P35670) | 0.0228 | 0.0423 | 0.0623 | -0.207
41 | ATRX C1789 (UniProt P46100) | 0.0768 | 0.233 | 0.109 | 0.213

Some entries already given, reduced to log2 mean competition ratio ([1]; 200 µM).
Row	Target	log2 mean competition ratio ([1]; 200 µM)
27	ATAD3A C563 (UniProt Q9NVI7)	0.0205
28	BHLHE40 C219 (UniProt O14503)	-0.13

— the supplement of paper PMC11732987, “Enantioselective OTUD7B fragment discovery through chemoproteomics screening and high-throughput optimisation” (Communications Chemistry, 2025)
